Laboratory results as given in patent US20200407441A1 (I MAB BIOPHARMA US, published 2020).
No constants are given. Whether binding was seen depends on the method and setting. Some binding calls cover weakened binding; strength is not graded here.

By UniProt entry, the sequences of proteins in these tests, tags left out. Where a name states a change or a piece, a line headed by the entry shows the natural chain unless it says otherwise. Residues count along the entry.
UniProt Q08722: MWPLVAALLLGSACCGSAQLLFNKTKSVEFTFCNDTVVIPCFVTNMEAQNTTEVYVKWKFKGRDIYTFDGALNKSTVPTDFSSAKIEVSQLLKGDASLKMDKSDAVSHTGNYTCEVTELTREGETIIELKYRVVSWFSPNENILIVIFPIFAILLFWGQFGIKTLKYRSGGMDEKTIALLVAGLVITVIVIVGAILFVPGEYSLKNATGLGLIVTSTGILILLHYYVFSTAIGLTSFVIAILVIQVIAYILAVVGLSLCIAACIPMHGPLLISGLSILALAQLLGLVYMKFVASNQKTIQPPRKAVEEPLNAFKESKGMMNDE
CD47 on human red blood cells: residues 19-323 of Q08722

Assays:
human CD47-ECD = biological target: T1, human CD47-ECD (human, UniProt Q08722 19-139, limits assumed, N-terminal pyroglutamate (seen in the crystal structure)); experiment: ELISA (figure legend)
T1 construct: extracellular domain; also called recombinant CD47-ECD; CD47 ECD protein

[1] = biological target: CD47 on human red blood cells (human) (UniProt Q08722); experiment: RBC binding assay (figure legend)
[2] = biological target: CD47 on human red blood cells (human) (UniProt Q08722); experiment: RBC binding assay (flow cytometry)
human CD47 on Raji cells = biological target: T2, human CD47 on Raji cells (human, UniProt Q08722 19-323); experiment: flow cytometry on Raji cells (figure legend)
T2 construct: whole, on cells; also called CD47+ Raji cells; CD47-bearing Raji cells

[3] = biological target: CD47 on human red blood cells (human) (UniProt Q08722); experiment: flow cytometry on human RBCs, Donor 1 and Donor 2

binding (human CD47-ECD): binds | binding [1]: binds | binding [2]: binds | binding (human CD47 on Raji cells): binds | binding [3]: binds
B1: CD47 antibody 34C5 (antibody, V domains shown)
VH: QVQLVQSGAEVKKPGSSVKVSCKASGYTFSSYYMHWVRQAPGQGLEWMGEINPNNARINFNEKFKTRVTLTVDKSTSTAYMELSSLRSEDTAVYYCTRGYYRYGAWFGYWGQGTLVTVSS
VL: DIQMTQSPSSLSASVGDRVTITCRASQDISDYLNWYQQKPGKAPKLLIYYISRLHSGVPSRFSGSGSGTDYTLTISSLQPEDFATYYCQQGHTLPWTFGGGTKVEIK
